The values that follow come from article PMC7663391.

These are yes or no findings as the source states them, for the method shown. For some assays here: Binding seen in cells or lysates may run through a third protein. Some results given as binding are weak or reduced against the parent protein; the word gives no strength. Where a sequence is shown, tags or fusion partners need not be part of it.

The target of experiment [1] is T1, AHA2 full length fused to the C-terminal part of YFP (AHA2:pSPYCE(M)) (Arabidopsis thaliana) (UniProt P19456).
T1 sequence: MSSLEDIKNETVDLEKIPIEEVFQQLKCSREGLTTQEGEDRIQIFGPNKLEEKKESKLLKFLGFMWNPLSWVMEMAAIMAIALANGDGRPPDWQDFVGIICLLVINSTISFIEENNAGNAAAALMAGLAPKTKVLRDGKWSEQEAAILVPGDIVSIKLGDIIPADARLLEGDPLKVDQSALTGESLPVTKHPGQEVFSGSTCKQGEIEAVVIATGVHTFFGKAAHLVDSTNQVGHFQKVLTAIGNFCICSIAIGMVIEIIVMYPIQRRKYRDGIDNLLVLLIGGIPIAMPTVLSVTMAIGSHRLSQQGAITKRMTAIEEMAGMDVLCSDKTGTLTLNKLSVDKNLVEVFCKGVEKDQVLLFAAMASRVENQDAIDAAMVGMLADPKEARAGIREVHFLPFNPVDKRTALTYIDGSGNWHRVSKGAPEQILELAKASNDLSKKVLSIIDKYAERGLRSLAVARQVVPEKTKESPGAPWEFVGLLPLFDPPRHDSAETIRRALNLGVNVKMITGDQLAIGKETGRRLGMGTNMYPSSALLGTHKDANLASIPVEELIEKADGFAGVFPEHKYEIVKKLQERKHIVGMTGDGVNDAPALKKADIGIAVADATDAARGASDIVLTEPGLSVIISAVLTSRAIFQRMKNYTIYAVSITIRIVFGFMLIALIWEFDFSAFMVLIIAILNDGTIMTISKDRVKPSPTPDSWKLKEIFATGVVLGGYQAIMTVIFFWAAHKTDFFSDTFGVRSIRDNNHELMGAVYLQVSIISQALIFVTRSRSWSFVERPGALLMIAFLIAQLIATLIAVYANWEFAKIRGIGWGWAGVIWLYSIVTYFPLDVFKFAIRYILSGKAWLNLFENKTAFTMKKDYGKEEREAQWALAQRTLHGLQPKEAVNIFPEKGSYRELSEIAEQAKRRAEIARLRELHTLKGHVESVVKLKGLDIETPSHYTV
In words: split reporter; BiFC with split YFP in Nicotiana benthamiana leaves, co-infiltrated with the p19 strain; confocal microscopy 2-3 days after injection; empty YC and YN vectors as controls.

Experiment [2] deals with T2, AHA2 C-terminal (amino acids 836-948), yeast two-hybrid fusion (Arabidopsis thaliana) (UniProt P19456).
T2 sequence: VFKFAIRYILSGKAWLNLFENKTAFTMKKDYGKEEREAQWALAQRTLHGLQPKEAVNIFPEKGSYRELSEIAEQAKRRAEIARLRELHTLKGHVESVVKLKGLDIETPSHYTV
In words: two-hybrid; yeast AH109; AHA2 C-terminal as bait, PEPR2 KD as prey; growth on SD-Trp-Leu-His-Ade at dilutions 10^-1 to 10^-3, 30 °C, 4 days; empty pGADT7 and pGBKT7 as negative controls.

B1: PEPR2 full length fused to the N-terminal part of YFP (pSPYNE(R)173:PEPR2) (receptor, UniProt Q9FZ59 27-1088)
chain: LNSDGLALLSLLKHFDKVPLEVASTWKENTSETTPCNNNWFGVICDLSGNVVETLNLSASGLSGQLGSEIGELKSLVTLDLSLNSFSGLLPSTLGNCTSLEYLDLSNNDFSGEVPDIFGSLQNLTFLYLDRNNLSGLIPASVGGLIELVDLRMSYNNLSGTIPELLGNCSKLEYLALNNNKLNGSLPASLYLLENLGELFVSNNSLGGRLHFGSSNCKKLVSLDLSFNDFQGGVPPEIGNCSSLHSLVMVKCNLTGTIPSSMGMLRKVSVIDLSDNRLSGNIPQELGNCSSLETLKLNDNQLQGEIPPALSKLKKLQSLELFFNKLSGEIPIGIWKIQSLTQMLVYNNTLTGELPVEVTQLKHLKKLTLFNNGFYGDIPMSLGLNRSLEEVDLLGNRFTGEIPPHLCHGQKLRLFILGSNQLHGKIPASIRQCKTLERVRLEDNKLSGVLPEFPESLSLSYVNLGSNSFEGSIPRSLGSCKNLLTIDLSQNKLTGLIPPELGNLQSLGLLNLSHNYLEGPLPSQLSGCARLLYFDVGSNSLNGSIPSSFRSWKSLSTLVLSDNNFLGAIPQFLAELDRLSDLRIARNAFGGKIPSSVGLLKSLRYGLDLSANVFTGEIPTTLGALINLERLNISNNKLTGPLSVLQSLKSLNQVDVSYNQFTGPIPVNLLSNSSKFSGNPDLCIQASYSVSAIIRKEFKSCKGQVKLSTWKIALIAAGSSLSVLALLFALFLVLCRCKRGTKTEDANILAEEGLSLLLNKVLAATDNLDDKYIIGRGAHGVVYRASLGSGEEYAVKKLIFAEHIRANQNMKREIETIGLVRHRNLIRLERFWMRKEDGLMLYQYMPNGSLHDVLHRGNQGEAVLDWSARFNIALGISHGLAYLHHDCHPPIIHRDIKPENILMDSDMEPHIGDFGLARILDDSTVSTATVTGTTGYIAPENAYKTVRSKESDVYSYGVVLLELVTGKRALDRSFPEDINIVSWVRSVLSSYEDEDDTAGPIVDPKLVDELLDTKLREQAIQVTDLALRCTDKRPENRPSMRDVVKDLTDLESFVRSTSGSVH
For B1, the binding entry in experiment [1] was “binds”.

B2: PEPR2 kinase domain, C terminus (amino acids 760-1072), yeast two-hybrid fusion (domain or fragment, UniProt Q9FZ59 760-1072)
chain: LCRCKRGTKTEDANILAEEGLSLLLNKVLAATDNLDDKYIIGRGAHGVVYRASLGSGEEYAVKKLIFAEHIRANQNMKREIETIGLVRHRNLIRLERFWMRKEDGLMLYQYMPNGSLHDVLHRGNQGEAVLDWSARFNIALGISHGLAYLHHDCHPPIIHRDIKPENILMDSDMEPHIGDFGLARILDDSTVSTATVTGTTGYIAPENAYKTVRSKESDVYSYGVVLLELVTGKRALDRSFPEDINIVSWVRSVLSSYEDEDDTAGPIVDPKLVDELLDTKLREQAIQVTDLALRCTDKRPENRPSMRDVVKD
Take B2: in experiment [2], the binding result was “binds”.
